The text below walks through data of US20230406915A1 (HJB HANGZHOU, published 2023).

Some targets named below: M-751; M-747; M-755.
What all share (experiment): BLI (Octet), self-association, table heading

Positions count from the first letter of the chain named. No constants are given. Whether binding was seen depends on the method and setting. Some binding calls cover weakened binding; strength is not graded here.

B1: M-751 (antibody, V domains shown)
VH: QVQLVQSGAEVKKPGSSVKVSCKASGYTFTNYWMNWVRQAPGQGLEWMGMIHPSDSETRLNQKFQGRVTITVDKSTSTAYMELSSLRSEDTAVYYCAREGRLGLRSYAMDYWGQGTLVTVSS
VL: DIQMTQSPSSLSASVGDRVTITCRSSQSLLNSSNQKNYLAWYQQKPGKVPKLLIYFASTRESGVPSRFSGSGSGTDFTLTISSLQPEDVATYFCQQHYITPLTFGGGTKVEIKR
notes: also called candidate antibody
As for B1, in the experiment with M-751, the binding result is recorded as “binds”.

B2: M-747 (antibody, human IgG1, kappa, V domains shown)
VH: B1 VH with A9S, V11L, S16A, Q65K, G66D
VL: DIVMTQSPDSLAVSLGERATINCKSSQSLLNSSNQKNYLAWYQQKPGQPPKLLVYFASTRESGVPDRFSGSGSGTDFTLTISSLQAEDVAVYFCQQHYITPLTFGGGTKVEIKR
notes: Humanized anti-DKK2 parental antibody; also called parental antibody; parental molecule
For B2, the binding entry with M-747 was “binds”.

B3: M-755 (antibody, V domains shown)
VH: B1 VH with S16A, F64L, S84R, E89D
VL: B1 VL with V49A, V89F
notes: as for B1
Turning to B3, the binding result with M-755 was “binds”.
